The results in this text go back to the M2OR odorant receptor database.

Common to all, as to details: stereoisomer not certain
In one test the target is T1, OR2K2 (Homo sapiens) (UniProt Q8NGT1).
T1 sequence (whole entry): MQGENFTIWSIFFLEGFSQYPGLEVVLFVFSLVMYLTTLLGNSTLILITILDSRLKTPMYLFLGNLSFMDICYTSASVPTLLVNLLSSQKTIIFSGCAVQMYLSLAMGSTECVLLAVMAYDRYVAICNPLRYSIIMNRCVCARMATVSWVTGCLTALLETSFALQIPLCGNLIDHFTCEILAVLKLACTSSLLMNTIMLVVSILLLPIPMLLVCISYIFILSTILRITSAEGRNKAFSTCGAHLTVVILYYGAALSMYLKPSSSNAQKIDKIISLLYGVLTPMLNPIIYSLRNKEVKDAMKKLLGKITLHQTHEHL
Put shortly:
(§1)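 Assay methods differ from source to source, frequently being transient luciferase assays in mammalian cell lines. For each receptor–molecule pair, the label responsive (active) applies when the original authors judged the measured signal statistically different from baseline, and non-responsive (inactive) applies otherwise.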

For another test, the target named is T2, OR2L13 (Homo sapiens) (UniProt Q8N349).
T2 sequence (whole entry): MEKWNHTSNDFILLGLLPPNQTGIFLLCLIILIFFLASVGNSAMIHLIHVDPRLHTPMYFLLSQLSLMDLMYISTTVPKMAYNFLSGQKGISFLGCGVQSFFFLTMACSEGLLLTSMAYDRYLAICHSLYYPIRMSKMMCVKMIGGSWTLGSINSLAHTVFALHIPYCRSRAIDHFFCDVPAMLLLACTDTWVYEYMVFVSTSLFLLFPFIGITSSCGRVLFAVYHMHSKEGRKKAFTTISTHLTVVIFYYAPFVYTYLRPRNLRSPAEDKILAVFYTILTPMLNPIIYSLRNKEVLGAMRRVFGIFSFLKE
A digest of the protocol: as §1

A further test has as its target T3, OR2L2 (Homo sapiens) (UniProt Q8NH16).
T3 sequence (whole entry): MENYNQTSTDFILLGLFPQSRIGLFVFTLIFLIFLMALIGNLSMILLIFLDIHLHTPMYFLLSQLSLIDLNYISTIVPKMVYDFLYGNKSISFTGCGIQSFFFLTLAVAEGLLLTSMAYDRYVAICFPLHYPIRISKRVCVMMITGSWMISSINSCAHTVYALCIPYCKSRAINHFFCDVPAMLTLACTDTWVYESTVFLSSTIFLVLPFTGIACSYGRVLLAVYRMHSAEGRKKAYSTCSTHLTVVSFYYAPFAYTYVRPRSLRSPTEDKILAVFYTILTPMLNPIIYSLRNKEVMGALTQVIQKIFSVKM
Put shortly: as §1

A further test has as its system T4, OR2L3.
T4 sequence (whole entry): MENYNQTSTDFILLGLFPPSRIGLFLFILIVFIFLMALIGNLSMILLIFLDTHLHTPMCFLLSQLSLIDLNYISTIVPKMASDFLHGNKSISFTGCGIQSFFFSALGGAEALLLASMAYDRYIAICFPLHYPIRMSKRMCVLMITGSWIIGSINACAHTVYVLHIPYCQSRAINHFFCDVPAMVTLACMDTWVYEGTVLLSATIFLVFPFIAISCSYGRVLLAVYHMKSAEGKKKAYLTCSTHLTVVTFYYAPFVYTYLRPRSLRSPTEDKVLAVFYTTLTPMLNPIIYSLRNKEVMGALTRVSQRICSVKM
Put shortly:
as §1

A further test has as its target T5, OR2L5 (Homo sapiens) (UniProt Q8NG80).
T5 sequence (whole entry): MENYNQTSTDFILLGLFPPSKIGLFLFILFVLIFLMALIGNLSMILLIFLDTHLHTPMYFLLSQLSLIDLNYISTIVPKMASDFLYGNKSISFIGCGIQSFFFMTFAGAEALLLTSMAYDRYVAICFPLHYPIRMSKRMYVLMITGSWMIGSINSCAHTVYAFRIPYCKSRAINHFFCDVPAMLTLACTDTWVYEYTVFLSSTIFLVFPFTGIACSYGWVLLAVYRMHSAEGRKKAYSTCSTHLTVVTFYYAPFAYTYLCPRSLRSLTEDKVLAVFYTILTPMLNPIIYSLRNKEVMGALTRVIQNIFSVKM
A digest of the protocol:
as §1

A further test relates to T6, OR2L8.
T6 sequence (whole entry): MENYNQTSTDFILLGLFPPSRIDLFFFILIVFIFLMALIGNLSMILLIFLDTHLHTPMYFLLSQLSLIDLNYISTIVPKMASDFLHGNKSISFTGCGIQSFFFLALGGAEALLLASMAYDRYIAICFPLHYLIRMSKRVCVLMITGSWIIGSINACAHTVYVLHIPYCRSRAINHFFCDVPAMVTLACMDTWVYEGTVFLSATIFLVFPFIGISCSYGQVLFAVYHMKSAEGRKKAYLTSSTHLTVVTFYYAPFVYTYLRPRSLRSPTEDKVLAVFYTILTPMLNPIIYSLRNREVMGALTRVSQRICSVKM
Put shortly: as §1

In another test the test system is T7, OR2M2.
T7 sequence (whole entry): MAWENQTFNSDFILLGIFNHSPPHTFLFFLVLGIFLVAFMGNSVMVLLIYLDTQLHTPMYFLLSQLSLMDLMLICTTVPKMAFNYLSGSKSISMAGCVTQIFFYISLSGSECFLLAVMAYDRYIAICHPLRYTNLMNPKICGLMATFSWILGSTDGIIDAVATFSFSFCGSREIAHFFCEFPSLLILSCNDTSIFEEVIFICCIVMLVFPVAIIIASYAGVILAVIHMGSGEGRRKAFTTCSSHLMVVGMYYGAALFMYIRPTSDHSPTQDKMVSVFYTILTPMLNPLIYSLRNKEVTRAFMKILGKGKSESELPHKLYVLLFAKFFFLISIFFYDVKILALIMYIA
A digest of the protocol: as §1

A further test concerns the target T8, OR2M3 (Homo sapiens) (UniProt Q8NG83).
T8 sequence (whole entry): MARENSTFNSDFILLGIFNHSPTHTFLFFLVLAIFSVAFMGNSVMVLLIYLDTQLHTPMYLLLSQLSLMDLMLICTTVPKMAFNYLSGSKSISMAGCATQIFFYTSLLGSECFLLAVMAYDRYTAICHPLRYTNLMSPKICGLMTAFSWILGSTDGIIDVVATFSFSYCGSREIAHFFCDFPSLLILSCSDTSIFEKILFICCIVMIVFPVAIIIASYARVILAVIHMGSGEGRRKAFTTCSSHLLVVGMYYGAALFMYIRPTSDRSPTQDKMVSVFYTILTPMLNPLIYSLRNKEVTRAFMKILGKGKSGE
A digest of the protocol: as §1

The next test addresses T9, OR2M4 (Homo sapiens) (UniProt Q96R27).
T9 sequence (whole entry): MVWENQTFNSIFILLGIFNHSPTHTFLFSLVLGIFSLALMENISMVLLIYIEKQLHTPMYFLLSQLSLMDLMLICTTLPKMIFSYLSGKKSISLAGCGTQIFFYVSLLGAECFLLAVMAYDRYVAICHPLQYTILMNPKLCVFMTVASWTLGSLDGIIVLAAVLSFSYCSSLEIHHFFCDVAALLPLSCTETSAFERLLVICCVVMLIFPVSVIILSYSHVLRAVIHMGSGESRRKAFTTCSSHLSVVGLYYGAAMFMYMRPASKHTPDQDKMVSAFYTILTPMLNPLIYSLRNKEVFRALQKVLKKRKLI
Put shortly:
as §1

This is a selection; strong and weak results do not stand in their true shares. The calls were merged from several studies; some rest on single wells. The list shows a part of the results.

Turning to `CC(C)CC(=O)O`, the “odorant receptor agonist call” value with OR2K2 (Homo sapiens), in the test with OR2L13 (Homo sapiens), in the test with OR2L2 (Homo sapiens), in the test with OR2L3, in the test with OR2L5 (Homo sapiens) and in the test on OR2L8 was “inactive” throughout. Besides, the “odorant receptor agonist call” value with OR2M2, with OR2M3 (Homo sapiens) and with OR2M4 (Homo sapiens) was “inactive” throughout.

As to `CC12CCC(C1)C(C)(C)C2=O` (stereo not given), the “odorant receptor agonist call” value in the test with OR2K2 (Homo sapiens), with OR2L13 (Homo sapiens), with OR2L2 (Homo sapiens), with OR2L3, with OR2L5 (Homo sapiens) and with OR2L8 was “inactive” in each case. The “odorant receptor agonist call” value in the test on OR2M2, with OR2M3 (Homo sapiens) and with OR2M4 (Homo sapiens) was “inactive” throughout.

For the compound `O=C1CCCCCCCCCCCCCCO1`, the “odorant receptor agonist call” value with OR2K2 (Homo sapiens), with OR2L13 (Homo sapiens), with OR2L2 (Homo sapiens), in the test with OR2L3, with OR2L5 (Homo sapiens) and with OR2L8 was “inactive” each time. Further, the “odorant receptor agonist call” value in the test on OR2M2, with OR2M3 (Homo sapiens) and with OR2M4 (Homo sapiens) was “inactive” each time.

As for `CCCCCCCC=O`, the “odorant receptor agonist call” value in the test with OR2K2 (Homo sapiens), with OR2L13 (Homo sapiens), with OR2L2 (Homo sapiens), in the test with OR2L3, with OR2L5 (Homo sapiens) and with OR2L8 was “inactive” in each case. The “odorant receptor agonist call” value with OR2M2, in the test with OR2M3 (Homo sapiens) and with OR2M4 (Homo sapiens) was “inactive” throughout.

For the compound `CC12CCC(CC1)C(C)(C)O2`, the “odorant receptor agonist call” value with OR2K2 (Homo sapiens), with OR2L13 (Homo sapiens), in the test with OR2L2 (Homo sapiens), with OR2L3, with OR2L5 (Homo sapiens) and with OR2L8 was “inactive” throughout. Further, the “odorant receptor agonist call” value with OR2M2, with OR2M3 (Homo sapiens) and in the test with OR2M4 (Homo sapiens) was “inactive” throughout.

As for `COC(=O)c1ccccc1O`, the “odorant receptor agonist call” value in the test with OR2K2 (Homo sapiens), with OR2L13 (Homo sapiens), in the test with OR2L2 (Homo sapiens), with OR2L3, with OR2L5 (Homo sapiens) and with OR2L8 was “inactive” throughout. For the same compound, the “odorant receptor agonist call” value in the test with OR2M2, with OR2M3 (Homo sapiens) and with OR2M4 (Homo sapiens) was “inactive” each time.

For the compound `CCCCCC(=O)O`, the “odorant receptor agonist call” value in the test with OR2K2 (Homo sapiens), in the test with OR2L2 (Homo sapiens), in the test on OR2L3, in the test with OR2L5 (Homo sapiens), in the test with OR2L8 and in the test on OR2M2 was “inactive” throughout. Besides, the “odorant receptor agonist call” value with OR2M3 (Homo sapiens) and in the test with OR2M4 (Homo sapiens) was “inactive” throughout.

As for `CCCCCCCCCCC=O`, the “odorant receptor agonist call” value in the test with OR2K2 (Homo sapiens), in the test with OR2L2 (Homo sapiens), in the test with OR2L3, with OR2L5 (Homo sapiens), in the test with OR2L8 and in the test with OR2M2 was “inactive” each time. Further, the “odorant receptor agonist call” value with OR2M3 (Homo sapiens) and in the test with OR2M4 (Homo sapiens) was “inactive” in each case.

Take `C=CCc1ccc(O)c(OC)c1`: the “odorant receptor agonist call” value with OR2L13 (Homo sapiens) and in the test with OR2M3 (Homo sapiens) was “inactive” in each case.

As for `CCC1(O)C2(C)CCC(C2)C1(C)C` (stereo not given), the “odorant receptor agonist call” value with OR2K2 (Homo sapiens), in the test with OR2L13 (Homo sapiens), with OR2L2 (Homo sapiens), in the test on OR2L3, with OR2L5 (Homo sapiens) and with OR2L8 was “inactive” in each case. Further, the “odorant receptor agonist call” value in the test with OR2M2 and in the test with OR2M4 (Homo sapiens) was “inactive” each time. Moreover, the “odorant receptor agonist call” value with OR2M3 (Homo sapiens) is “active”.

As to `C=C(C)C1CCC2=CC(=O)CC(C)C2(C)C1` (stereo not given), the “odorant receptor agonist call” value with OR2L5 (Homo sapiens) is “active”.

Consider `CCCCCCCCOC(C)=O`, for which the “odorant receptor agonist call” value with OR2K2 (Homo sapiens), in the test with OR2L13 (Homo sapiens), with OR2L2 (Homo sapiens), in the test with OR2L3, with OR2L5 (Homo sapiens) and in the test with OR2L8 was “inactive” each time. Besides, the “odorant receptor agonist call” value in the test on OR2M2, with OR2M3 (Homo sapiens) and with OR2M4 (Homo sapiens) was “inactive” in each case.

On to `CCCCCC(C)=O`, for which the “odorant receptor agonist call” value with OR2K2 (Homo sapiens), with OR2L13 (Homo sapiens), with OR2L2 (Homo sapiens), with OR2L3, in the test on OR2L8 and in the test with OR2M2 was “inactive” each time. Moreover, the “odorant receptor agonist call” value in the test with OR2M3 (Homo sapiens) and with OR2M4 (Homo sapiens) was “inactive” each time.

For `CCCCCCCOC(C)=O`, the “odorant receptor agonist call” value with OR2K2 (Homo sapiens), in the test with OR2L13 (Homo sapiens), with OR2L2 (Homo sapiens), with OR2L3, with OR2L5 (Homo sapiens) and with OR2L8 was “inactive” throughout. For the same compound, the “odorant receptor agonist call” value in the test with OR2M2, with OR2M3 (Homo sapiens) and in the test with OR2M4 (Homo sapiens) was “inactive” throughout.

Consider `CCCCCCCCC=O`, for which the “odorant receptor agonist call” value in the test with OR2L13 (Homo sapiens) and with OR2M3 (Homo sapiens) was “inactive” throughout.
